The supplement of paper PMC3334620
In all, about 33,000 sequences were measured (“E-score (-0.5 to 0.5)”: median about -0.015, highest 2% from about 0.3 on). Some of the results follow.

target: T1, Abf1 (UniProt P14164); assay: PBM E-score (8-mer binding enrichment) (E-score (-0.5 to 0.5)); higher = stronger / more preferred TF binding; conditions: protein concentration: 200 nM; construct: GST-full length
T1 sequence: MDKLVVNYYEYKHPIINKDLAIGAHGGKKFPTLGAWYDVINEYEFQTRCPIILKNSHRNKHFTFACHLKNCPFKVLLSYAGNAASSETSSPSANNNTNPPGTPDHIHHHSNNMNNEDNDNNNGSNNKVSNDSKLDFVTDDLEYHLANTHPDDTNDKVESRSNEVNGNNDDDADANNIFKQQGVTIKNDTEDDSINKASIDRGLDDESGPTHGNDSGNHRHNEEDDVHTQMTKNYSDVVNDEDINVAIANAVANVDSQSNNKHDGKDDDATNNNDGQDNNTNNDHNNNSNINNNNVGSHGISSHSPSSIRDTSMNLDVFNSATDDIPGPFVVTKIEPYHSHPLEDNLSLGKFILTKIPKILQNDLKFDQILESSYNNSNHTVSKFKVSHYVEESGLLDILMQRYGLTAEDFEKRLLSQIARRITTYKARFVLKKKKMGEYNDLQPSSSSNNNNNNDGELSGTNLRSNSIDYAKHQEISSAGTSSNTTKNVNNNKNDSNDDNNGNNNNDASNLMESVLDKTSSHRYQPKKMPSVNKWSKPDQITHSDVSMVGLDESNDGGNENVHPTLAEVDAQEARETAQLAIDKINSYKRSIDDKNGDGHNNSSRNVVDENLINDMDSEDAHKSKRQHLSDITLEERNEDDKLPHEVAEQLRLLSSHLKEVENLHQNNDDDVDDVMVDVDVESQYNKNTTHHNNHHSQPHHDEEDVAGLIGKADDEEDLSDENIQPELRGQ
In short: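 Yeast transcription factors carrying a GST tag, as full-length proteins or DNA-binding domains, were produced by PURExpress in vitro transcription/translation. About 100-200 nM protein was applied to universal all-10-mer Agilent arrays, double-stranded by primer extension on fresh or once-stripped slides. Bound protein was detected with fluorescent anti-GST, and scans were normalised with masliner. The Universal PBM Analysis Suite gave each ungapped eight-base word, pooled with its reverse complement, an E-score, a modified Wilcoxon-Mann-Whitney statistic.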

| Sequence | PBM E-score |
| --- | --- |
| GTTAACCA | 0.1 |
| GCCCGCCC | -0.182 |
| GCTGAGCA | -0.0912 |
| CTTTAAGA | 0.0422 |
| GAGCGACA | 0.156 |
| GAAAGTGC | -0.178 |
| ACCTACGG | -0.00975 |
| AAAAATAC | 0.0421 |
| ACAAACTC | 0.0554 |
| GGATATGA | -0.00382 |
| CGGAAGAG | -0.212 |
| GTGAACTA | 0.17 |
| CTCTCGAA | -0.0477 |
| TGCCGCCA | -0.0462 |
| GAAGGAAC | -0.155 |
| AAGTCGGA | -0.0504 |
| AATCAGAT | 0.12 |
| GAGCGCAC | -0.206 |
| GTCATATA | 0.0965 |
| GAATTTCC | 0.00151 |
| ATCAGGCC | -0.062 |
| CGTATACG | 0.195 |

| Sequence | PBM E-score |
| --- | --- |
| AACTAGAC | 0.207 |
| AGCTCGAG | -0.192 |
| TAGTTACA | -0.0977 |
| AAGTGAAT | 0.16 |
| CAGTCTTC | -0.21 |
| CAGAGGCG | -0.284 |
| AGAATGAC | 0.255 |
| ACTCGCTG | -0.0846 |
| GTTCCAAC | -0.156 |
| ACCTCAGG | -0.0783 |
| ACCAATCG | 0.114 |
| CACCCGGC | 0.0172 |
| GTCCGGAC | -0.012 |
| CTCGCCAG | -0.167 |
| AGGGAGGG | -0.193 |
| GGCTATCA | -0.0522 |
| CTCTACCA | -0.187 |
| AGAGGGAT | -0.0786 |
| AGTAGTGA | 0.232 |
| CACTCGAA | 0.0748 |
| AAGAGTTG | 0.163 |
| AGTATGCA | 0.111 |

| Sequence | PBM E-score |
| --- | --- |
| GCGGACAA | 0.0266 |
| CTTCCGGC | 0.0161 |
| CCTCGAGG | -0.2 |
| CACTGGCC | -0.0631 |
| CTCCGCAA | -0.125 |
| CGTTTATA | 0.196 |
| AGAAGATA | 0.201 |
| CCATTAAA | -0.127 |
| CACTATCG | 0.0553 |
| TGATGGCA | -0.152 |
| AGCTTCGG | -0.0257 |
| ATGATTGC | 0.0463 |
| CGATACTA | 0.134 |
| AGGGGTGC | -0.162 |
| CATCTGAG | 0.00876 |
| AGGCACAC | -0.233 |
| GATAAGCA | -0.00131 |
| ACGCAGCA | -0.0265 |
| ACGTGACC | 0.0122 |
| GTGAGAGA | 0.0332 |
| CCAGGTTA | -0.132 |
| GTTCAAAA | 0.0939 |

Reprinted at random: three entries already listed, in no set order.

| Sequence | PBM E-score |
| --- | --- |
| ACTCGCTG | -0.0846 |
| AACTAGAC | 0.207 |
| GCTGAGCA | -0.0912 |

Continuation.

| Sequence | PBM E-score |
| --- | --- |
| CAAAGACC | -0.00385 |
| CACCCATA | -0.154 |
| GATGGACA | 0.00093 |
| GAATCGGC | -0.132 |
| TCCGAAAA | 0.147 |
| ACTCTCGG | -0.0501 |
| ACACCTCA | -0.0567 |
| ACCGGCTC | -0.0655 |
| ACCCTGAG | -0.0689 |
| ATAACTAG | 0.182 |
| GACGCACA | -0.0948 |
| CTATGATC | 0.227 |
| ATGACCTA | 0.235 |
| CGCGCCCC | -0.193 |
| AGATTAGA | 0.0285 |
| AAGTTCGT | 0.0462 |
| GAGCTGCA | -0.202 |
| ATGATTCA | 0.117 |
| CCGTCATC | 0.128 |
| ACACGATC | 0.25 |
| CATCCGCC | -0.193 |
| AGGCTGGA | -0.132 |

| Sequence | PBM E-score |
| --- | --- |
| ACTAATCT | 0.0547 |
| CAGACTCC | -0.323 |
| CGCCAGAC | 0.00888 |
| ACAAGTAA | -0.00214 |
| CTTTATAC | 0.219 |
| GAATACCC | -0.103 |
| CCATGACG | 0.143 |
| CTGCGCTA | -0.185 |
| GCCGGAGA | -0.0395 |
| AGACGAGC | 0.138 |
| GCCTCCAA | -0.121 |
| GTGGTACA | 0.113 |
| AACAGGAG | -0.178 |
| CGCGTGAC | 0.303 |
| TGAAATAA | 0.215 |
| CTAAAATC | -0.0564 |
| GCTTTTAA | -0.115 |
| TCGCGAAA | 0.2 |
| CCGCATCG | -0.126 |
| TACGAGAA | 0.291 |
| AGTAGAAT | -0.0946 |
